The supplement of paper PMC8551327
Some of the results follow. No stated cut-off is given here; in the data, active = 1.25 or more and inactive = the rest. Single values are uncertain, as repeats are few or missing.

These compounds were tested on Kcc2-LUC knock-in mouse primary cortical neurons (Kcc2 promoter reporter) (assay: Kcc2 promoter-driven luciferase activity relative to vehicle control (fold of vehicle (ratio)); higher = stronger Kcc2 promoter activation (Kcc2 expression enhancer)). Conditions: 100 nM; 48 h.
`CC(=O)C1=C(O)C=C2Oc3c(C(C)=O)c(O)c(C)c(O)c3C2(C)C1=O` (stereo in doubt) [Usnic Acid] was tested, and the “Kcc2 promoter-driven luciferase activity” value was inactive: 0.92.
`COc1ccc2c(c1)CCc1c-2n[nH]c1-c1[nH]nc2c1CCc1cc(OC)ccc1-2` was tested, and the “Kcc2 promoter-driven luciferase activity” value was inactive: 0.48.
In the case of `CN(CO)c1nc(N(C)CO)nc(N(C)CO)n1` [Trimethyl TMM], the “Kcc2 promoter-driven luciferase activity” value was inactive: 0.87.
